This is one part of the list. The main result of the screen is listed elsewhere. These columns were measured beside it and carry no call. Compounds called inactive in the main read-out are mostly missing here. Words in brackets tell the shape of the fitted curve; partial curves, single points and poor fits give uncertain potencies.
Assay: qHTS Assay for Lipid Storage Modulators in Drosophila S3 Cells;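 on cell number change: cells counted by Cell Tracker Red CMTPX staining in the red channel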
Conditions: BODIPY lipid droplet fluorescence, 18-24 h; for cell number change: measured here: cell count max response, cells fed with added oleic acid
Procedure, shortened: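 Laser-scanning cytometry quantifies lipid droplet accumulation (500–530 nm total intensity; droplet/cell object ratio) in oleic acid-fed (400 uM added) Drosophila S3 cells treated with a concentration series. 20 uM Triacsin C defined 100% inhibition.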

[1] = measured here: lipid fluorescence (Fed channel) AC50, cells fed with added oleic acid
[2] = measured here: cell number channel AC50, cells fed with added oleic acid

Row | SMILES | cell number change [%] | AC50 [1] | AC50 [2]
1 | CCOc1cc(N2CCOCC2)c(OCC)cc1NC(=O)CN1CCSC1=O | 0.779 | 0.082 µM [falling, full curve, poor fit] | 
2 | CCc1noc(C)c1C(=O)Nc1cccc2ncccc12 |  | 2.06 µM [falling, partial curve] | 
3 | O=C(NCc1ccncc1)NC12CC3CC(CC(C3)C1)C2 | 17.7 | 0.366 µM [rising, full curve, poor fit] | 
4 | COCCN1CCN(C(=O)C2CCC(=O)N(CCc3ccc(Cl)cc3)C2)CC1 (configuration not stated) | -14.4 | 29.1 µM [rising, single point] | 
5 | CC1CCCCN1C(=O)CSc1nnc(-c2ccccc2O)o1 (configuration not stated) | 13.9 | 2.91 µM [rising, single point] | 
6 | CCN=C1SC(C(=O)Nc2cccc(Br)c2)CC(=O)N1CC (configuration not stated) | -53.3 |  | 3.66 µM [falling, full curve]
7 | Cc1ccc2c(c1)N(CC(=O)NCCCN1CCCCC1)C(=O)c1cccnc1O2 | -19 | 2.06 µM [rising, partial curve] | 
8 | CCOC(=O)Cn1cc(/C=C(/C#N)C(=O)NC(C)C)c2ccccc21 | 8.98 | 32.6 µM [rising, single point] | 
9 | CCc1ccc(-c2ccc(C(=O)O)cc2)nc1 | -18.9 | 3.26 µM [falling, single point] | 3.26 µM [falling, single point]
10 | CCn1c(=O)c2sccc2n2c(CCCC(=O)NCc3cccnc3)nnc12 | 1.91 |  | 
11 | CCN(CC)C1CCN(C(=O)c2cc(COc3cccc4cccnc34)on2)C1 (configuration not stated) | 17.5 | 29.1 µM [rising, single point] | 
12 | COc1ccc(O)c(CN2CCCC(C(=O)Nc3cccc(-n4cccn4)c3)C2)c1 (configuration not stated) | -14.4 | 29.1 µM [rising, single point] | 
13 | Cc1cc(C)n(CC(O)COc2ccc(Cl)cc2)n1 (configuration not stated) | 2.92 | 6.51 µM [rising, single point] | 
14 | O=C1NC(=Nc2ccccc2)S/C1=C/c1cccnc1 | 5.92 |  | 
15 | COc1ccc(-c2noc(CCCC(=O)NC3CCCCC3)n2)cc1OC | 23.7 |  | 
16 | O=C(CN1C(=O)NC2(CCCCCC2)C1=O)Nc1ccc(Cl)cc1Cl | 2.95 |  | 
17 | C/C(CC(=O)Nc1cccc2c1CCCC2)=N\NC(=O)Cc1ccccc1 | 20 |  | 0.103 µM [rising, full curve, poor fit]
18 | O=C(Nc1cccnc1)c1cnc2ccccc2n1 | -43.9 |  | 16.4 µM [falling, partial curve, poor fit]
19 | COCCn1c(C)cc(/C=C2/SC(=O)N(CC(=O)N3CCCC3)C2=O)c1C | -34.3 | 6.51 µM [falling, single point] | 
20 | CSc1nc(-c2ccc(Cl)cc2)nn1C(=O)c1ccco1 | -124 |  | 29.1 µM [falling, single point]
21 | O=c1[nH]cnc2scc(-c3cccs3)c12 | 0.956 | 2.31 µM [falling, partial curve, poor fit] | 

Row | SMILES | cell number change [%] | AC50 [1] | AC50 [2]
22 | COc1cccc(-c2nc(OC(C)C)c3ccccc3n2)c1 | -6.98 |  | 
23 | COc1ccc(NC(=O)NC(C)c2ccncc2)cc1OC (configuration not stated) | 55.2 |  | 18.4 µM [rising, single point]
24 | CCOc1ccc(-n2c(SCC(=O)Nc3ccc4c(c3)OCO4)nc3c(c2=O)SCC3)cc1 |  | 0.366 µM [rising, full curve] | 0.184 µM [rising, full curve]
25 | Cc1cc(-c2nnc(SCC(=O)Nc3ccc(F)c(F)c3)n2N)n[nH]1 | 0.708 | 6.51 µM [falling, single point] | 
26 | Cc1onc(C(=O)Nc2cccc(C(F)(F)F)c2)c1[N+](=O)[O-] | -30.7 | 29.1 µM [falling, single point] | 18.4 µM [falling, single point]
27 | CCOC(=O)c1nnc(-c2ccccc2)o1 | 0.781 | 0.164 µM [falling, single point] | 
28 | O=C(Nc1ccccc1N1CCOCC1)c1cccc(NS(=O)(=O)c2ccc(F)c(F)c2)c1 | -29.4 |  | 
29 | CC(=O)Nc1ccc(NC(=O)CSc2nnc(C)c(=O)[nH]2)cc1 | -45.8 | 16.4 µM [falling, single point] | 14.6 µM [falling, single point]
30 | O=C(NC(Cc1ccccc1)C(=O)O)/C(=C\c1ccccc1F)NC(=O)c1ccccc1 (configuration not stated) | -34.3 |  | 7.31 µM [falling, partial curve, poor fit]
31 | CCOc1ccc(Nc2cc(=O)[nH]c(=O)[nH]2)cc1 | 9.79 |  | 
32 | CCCn1nnc(NC(=O)c2cc(Br)ccc2OC)n1 | 1.28 | 8.2 µM [rising, partial curve] | 
33 | Cc1ccc(C(=O)NNC(=O)C2CCN(C(=O)OC(C)(C)C)CC2)cc1 |  | 6.51 µM [falling, single point] | 
34 | COc1cc(CN(C)c2ncnc3sccc23)ccc1OC(F)F | -14.1 |  | 
35 | COc1ccc(NS(=O)(=O)c2cc(Cl)ccc2Cl)cc1S(=O)(=O)N1CCCCC1 | 15.3 |  | 
36 | CC(C)c1ccc(S(=O)(=O)N(C)C2(C)CCS(=O)(=O)C2)cc1 (configuration not stated) | 7.02 | 0.00461 µM [rising, full curve, poor fit] | 
37 | O=C(Nc1cccc2cccnc12)c1cc(F)c(F)cc1Cl | 8.76 | 29.1 µM [rising, single point] | 
38 | Cc1ccc(C)c(S(=O)(=O)N2CCCOC2CNC(=O)C(=O)NCc2ccco2)c1 (configuration not stated) | 8.61 | 9.2 µM [rising, partial curve, poor fit] | 2.06 µM [falling, partial curve]
39 | CCC(C(=O)NCCN1CCOCC1)n1c2ccccc2c2nc(=O)cc(C)n21 (configuration not stated) | -3.54 | 6.51 µM [falling, partial curve, poor fit] | 
40 | CCc1ccc(-c2cc(C(=O)N/N=C/c3ccccn3)[nH]n2)cc1 | -31.5 | 20.6 µM [falling, single point] | 20.6 µM [falling, single point]
41 | CCOc1ccc(N2CC(C(=O)Nc3nnc(Cc4ccc(OC)cc4)s3)CC2=O)cc1 (configuration not stated) | 11.3 | 29.1 µM [falling, single point] | 
42 | Cc1ccc(F)cc1NC(=O)CSCc1c(C)noc1C | 11.3 | 2.31 µM [rising, partial curve, poor fit] | 

Row | SMILES | cell number change [%] | AC50 [1] | AC50 [2]
43 | O=C(OCCN1CCCCC1)c1ccc(Cl)cc1 | -22.4 |  | 0.651 µM [falling, full curve]
44 | COc1ccc(/C=N/n2c(=O)[nH]c3c([nH]c4ccc(Br)cc43)c2=O)cc1CN1CCOCC1 | 31.1 |  | 0.00517 µM [rising, full curve, poor fit]
45 | O=[N+]([O-])c1ccc(Sc2cccc3cccnc23)c([N+](=O)[O-])c1 | -52.8 | 3.66 µM [rising, single point] | 29.1 µM [falling, single point]
46 | COCCNc1nc2nonc2nc1N(C)Cc1cccc2cnccc12 | 15.9 | 0.00461 µM [rising, full curve, poor fit] | 
47 | COc1cccc(-n2cc(CNCc3c(C(=O)N(C)C)nc4ccc(Cl)cn34)cn2)c1 | -43.2 | 16.4 µM [falling, partial curve] | 8.2 µM [falling, partial curve]
48 | O=C(Cc1ccc([N+](=O)[O-])cc1)Nc1ccc(Cl)cc1 |  |  | 6.51 µM [falling, single point]
49 | COc1ccc(N(C(=O)c2ccc3c(c2)OCO3)C2C=CS(=O)(=O)C2)c(OC)c1 (configuration not stated) | -20.9 | 4.11 µM [rising, full curve] | 7.31 µM [falling, partial curve, poor fit]
50 | CCOCCCn1c(=S)[nH]c2ncccc2c1=O | -2.09 | 0.82 µM [falling, full curve, poor fit] | 0.00461 µM [falling, full curve, poor fit]
51 | CC1CCCCN1S(=O)(=O)c1ccc(C(=O)Nc2nnc(-c3ccco3)o2)cc1 (configuration not stated) | -5.82 |  | 
52 | O=C(Nc1ccc(N2CCCCC2)c(Cl)c1)c1ccc(N2CCOCC2)c([N+](=O)[O-])c1 | -36.2 | 23.1 µM [falling, single point] | 20.6 µM [falling, single point]
53 | COc1ccc(-c2nc(NC(=O)c3nc4nccc(C)n4n3)sc2C)cc1 |  | 5.8 µM [rising, single point] | 0.116 µM [rising, full curve, poor fit]
54 | CCc1ccc(Nc2n[n+](-c3ccccc3)c(/C=C/c3ccccc3)s2)cc1 | -4.21 | 29.1 µM [falling, single point] | 
55 | CN1C(=O)C(CC(=O)NC2CCCCC2)SC1=Nc1ccccc1 (configuration not stated) | 11.2 | 1.64 µM [falling, partial curve, poor fit] | 
56 | Cn1c(=O)c2c(nc(SCC(=O)NCC3CCCO3)n2C)n(C)c1=O (configuration not stated) | 2.65 | 6.51 µM [rising, single point] | 
57 | Cc1ccc(N2CCCCn3c2nc2c3c(=O)[nH]c(=O)n2C)cc1 | 0.25 |  | 
58 | Cc1cc(C)cc(OCC(=O)N2CCc3ccccc3C2)c1 | 6.3 | 16.4 µM [rising, partial curve] | 
59 | CCOC(=O)c1c(C)nc2c(c1-c1ccc(OC)c(OC)c1)C(=O)c1ccccc1-2 | 2.43 | 3.26 µM [rising, full curve] | 
60 | COc1cc(C2=NOC(C(=O)Nc3ccc(C(C)=O)cc3)C2)cc(OC)c1OC (configuration not stated) | 33.3 |  | 
61 | O=C1Nc2ccccc2C1C(C[N+](=O)[O-])c1ccccc1 (configuration not stated) | 0.709 | 6.51 µM [rising, partial curve, poor fit] | 

A different layout for some results above.
Row,SMILES,cell number change [%],AC50 [1],AC50 [2]
46,COCCNc1nc2nonc2nc1N(C)Cc1cccc2cnccc12,15.9,"0.00461 µM [rising, full curve, poor fit]",
47,COc1cccc(-n2cc(CNCc3c(C(=O)N(C)C)nc4ccc(Cl)cn34)cn2)c1,-43.2,"16.4 µM [falling, partial curve]","8.2 µM [falling, partial curve]"
48,O=C(Cc1ccc([N+](=O)[O-])cc1)Nc1ccc(Cl)cc1,,,"6.51 µM [falling, single point]"
49,COc1ccc(N(C(=O)c2ccc3c(c2)OCO3)C2C=CS(=O)(=O)C2)c(OC)c1 (configuration not stated),-20.9,"4.11 µM [rising, full curve]","7.31 µM [falling, partial curve, poor fit]"
50,CCOCCCn1c(=S)[nH]c2ncccc2c1=O,-2.09,"0.82 µM [falling, full curve, poor fit]","0.00461 µM [falling, full curve, poor fit]"
51,CC1CCCCN1S(=O)(=O)c1ccc(C(=O)Nc2nnc(-c3ccco3)o2)cc1 (configuration not stated),-5.82,,
52,O=C(Nc1ccc(N2CCCCC2)c(Cl)c1)c1ccc(N2CCOCC2)c([N+](=O)[O-])c1,-36.2,"23.1 µM [falling, single point]","20.6 µM [falling, single point]"
53,COc1ccc(-c2nc(NC(=O)c3nc4nccc(C)n4n3)sc2C)cc1,,"5.8 µM [rising, single point]","0.116 µM [rising, full curve, poor fit]"
54,CCc1ccc(Nc2n[n+](-c3ccccc3)c(/C=C/c3ccccc3)s2)cc1,-4.21,"29.1 µM [falling, single point]",
55,CN1C(=O)C(CC(=O)NC2CCCCC2)SC1=Nc1ccccc1 (configuration not stated),11.2,"1.64 µM [falling, partial curve, poor fit]",
56,Cn1c(=O)c2c(nc(SCC(=O)NCC3CCCO3)n2C)n(C)c1=O (configuration not stated),2.65,"6.51 µM [rising, single point]",
57,Cc1ccc(N2CCCCn3c2nc2c3c(=O)[nH]c(=O)n2C)cc1,0.25,,

— PubChem BioAssay AID2685 (National Center for Advancing Translational Sciences (NCATS), 2010)
